Experimental data taken from paper PMC6004002.

The chains behind the UniProt entries cited, without tags or fusion partners. Where a name states a change or a piece, a line headed by the entry shows the natural chain unless it says otherwise.
UniProt Q88A90: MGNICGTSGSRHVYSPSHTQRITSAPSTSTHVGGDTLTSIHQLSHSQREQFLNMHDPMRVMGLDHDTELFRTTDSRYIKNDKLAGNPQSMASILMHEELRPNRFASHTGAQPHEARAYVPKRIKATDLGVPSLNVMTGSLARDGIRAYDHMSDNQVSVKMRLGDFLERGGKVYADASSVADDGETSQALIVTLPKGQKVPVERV
UniProt P93025: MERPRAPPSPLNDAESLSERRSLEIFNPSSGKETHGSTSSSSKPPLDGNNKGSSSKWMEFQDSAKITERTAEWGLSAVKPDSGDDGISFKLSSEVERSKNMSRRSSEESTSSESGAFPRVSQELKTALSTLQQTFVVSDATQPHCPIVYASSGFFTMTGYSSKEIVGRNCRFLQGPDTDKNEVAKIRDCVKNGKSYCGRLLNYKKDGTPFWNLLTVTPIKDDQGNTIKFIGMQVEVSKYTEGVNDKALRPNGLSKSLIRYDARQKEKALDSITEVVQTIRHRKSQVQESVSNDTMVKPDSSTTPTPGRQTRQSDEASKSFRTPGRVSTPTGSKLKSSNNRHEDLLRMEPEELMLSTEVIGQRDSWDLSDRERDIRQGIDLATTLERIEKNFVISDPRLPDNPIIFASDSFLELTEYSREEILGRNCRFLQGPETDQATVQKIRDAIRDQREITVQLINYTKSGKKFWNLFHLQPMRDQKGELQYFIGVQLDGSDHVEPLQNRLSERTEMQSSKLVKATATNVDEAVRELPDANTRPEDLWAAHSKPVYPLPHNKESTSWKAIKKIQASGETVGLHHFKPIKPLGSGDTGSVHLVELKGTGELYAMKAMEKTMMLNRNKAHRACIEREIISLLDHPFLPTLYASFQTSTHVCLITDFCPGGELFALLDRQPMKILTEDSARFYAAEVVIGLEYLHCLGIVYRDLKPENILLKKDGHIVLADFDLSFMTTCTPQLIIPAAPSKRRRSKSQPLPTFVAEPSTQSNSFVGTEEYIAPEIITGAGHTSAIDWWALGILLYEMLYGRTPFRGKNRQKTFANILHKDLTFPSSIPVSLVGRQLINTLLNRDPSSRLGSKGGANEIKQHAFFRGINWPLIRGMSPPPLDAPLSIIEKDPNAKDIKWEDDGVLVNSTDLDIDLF
UniProt Q9SY56: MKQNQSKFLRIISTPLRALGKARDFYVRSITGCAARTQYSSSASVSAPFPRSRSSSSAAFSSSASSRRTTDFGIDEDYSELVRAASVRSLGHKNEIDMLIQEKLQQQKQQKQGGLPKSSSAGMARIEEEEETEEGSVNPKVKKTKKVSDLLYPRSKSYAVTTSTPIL

target: HopF2-BirA*-FLAG-HA (Pseudomonas syringae) (UniProt Q88A90); experiment: proximity labelling; BioID in leaves of transgenic Arabidopsis expressing HopF2-BirA*-FLAG-HA; 2 mM biotin infiltrated, 30 uM dexamethasone 24 h at 25 °C; streptavidin sepharose purification of combined soluble and insoluble fractions, on-bead digestion, LC-MS/MS; SAINT against Col-0, BFDR ≤ 0.01; preys significant with HopF2-BirA* but not with BirA* alone

Molecule | binding
PHOTOTROPIN 2 (from UniProt P93025 1-915) | binds
At1g10140 (from UniProt Q9SY56) | binds
At3g02880 (protein, UniProt Q9M8T0 24-627) SDLESDRRALLAVRNSVRGRPLLWNMSASSPCNWHGVHCDAGRVTALRLPGSGLFGSLPIGGIGNLTQLKTLSLRFNSLSGPIPSDFSNLVLLRYLYLQGNAFSGEIPSLLFTLPSIIRINLGENKFSGRIPDNVNSATRLVTLYLERNQLSGPIPEITLPLQQFNVSSNQLNGSIPSSLSSWPRTAFEGNTLCGKPLDTCEAESPNGGDAGGPNTPPEKKDSDKLSAGAIVGIVIGCVVGLLLLLLILFCLCRKRKKEENVPSRNVEAPVAAATSSAAIPKETVVVVPPAKATGSESGAVNKDLTFFVKSFGEFDLDGLLKASAEVLGKGTVGSSYKASFEHGLVVAVKRLRDVVVPEKEFRERLHVLGSMSHANLVTLIAYYFSRDEKLLVFEYMSKGSLSAILHGNKGNGRTPLNWETRAGIALGAARAISYLHSRDGTTSHGNIKSSNILLSDSYEAKVSDYGLAPIISSTSAPNRIDGYRAPEITDARKISQKADVYSFGVLILELLTGKSPTHQQLNEEGVDLPRWVQSVTEQQTPSDVLDPELTRYQPEGNENIIRLLKIGMSCTAQFPDSRPSMAEVTRLIEEVSHSSGSPNPVSD | binds
At5g16730 (protein, UniProt Q9LFE4 85-853) VAAVKGTESPQTTTRLSQIKEDLKKANERISSLEKDKAKALDELKQAKKEAEQVTLKLDDALKAQKHVEENSEIEKFQAVEAGIEAVQNNEEELKKELETVKNQHASDSAALVAVRQELEKINEELAAAFDAKSKALSQAEDASKTAEIHAEKVDILSSELTRLKALLDSTREKTAISDNEMVAKLEDEIVVLKRDLESARGFEAEVKEKEMIVEKLNVDLEAAKMAESNAHSLSNEWQSKAKELEEQLEEANKLERSASVSLESVMKQLEGSNDKLHDTETEITDLKERIVTLETTVAKQKEDLEVSEQRLGSVEEEVSKNEKEVEKLKSELETVKEEKNRALKKEQDATSRVQRLSEEKSKLLSDLESSKEEEEKSKKAMESLASALHEVSSEGRELKEKLLSQGDHEYETQIDDLKLVIKATNEKYENMLDEARHEIDVLVSAVEQTKKHFESSKKDWEMKEANLVNYVKKMEEDVASMGKEMNRLDNLLKRTEEEADAAWKKEAQTKDSLKEVEEEIVYLQETLGEAKAESMKLKENLLDKETEFQNVIHENEDLKAKEDVSLKKIEELSKLLEEAILAKKQPEEENGELSESEKDYDLLPKVVEFSSENGHRSVEEKSAKVETLDHEPPQEQISNGNSNGNGMEEKEVNGKPEVETEKKEKKDESQDDDKDDSVEVIFKMWESCQIEKKEAFPDKKSELESQEEEEDSSKIDESDKTSTENIDETGNALTAEDQLTMEKKIKKKKTLLGKVGNLLKKKAPVNQK | binds
REMORIN1.3 (protein, UniProt O80837 1-190) MAEEQKTSKVDVESPAVLAPAKEPTPAPVEVADEKIHNPPPVESKALAVVEKPIEEHTPKKASSGSADRDVILADLEKEKKTSFIKAWEESEKSKAENRAQKKISDVHAWENSKKAAVEAQLRKIEEKLEKKKAQYGEKMKNKVAAIHKLAEEKRAMVEAKKGEELLKAEEMGAKYRATGVVPKATCGCF | binds
REM1.2 (protein, UniProt Q9M2D8 1-212) MAEEQKIALESESPAKVTTPAPADTPAPAPAEIPAPAPAPTPADVTKDVAEEKIQNPPPEQIFDDSKALTVVEKPVEEPAPAKPASASLDRDVKLADLSKEKRLSFVRAWEESEKSKAENKAEKKIADVHAWENSKKAAVEAQLKKIEEQLEKKKAEYAERMKNKVAAIHKEAEERRAMIEAKRGEDVLKAEETAAKYRATGIVPKATCGCF | binds
PATL2 (protein, UniProt Q56ZI2 1-683) MAQEEIQKPTASVPVVKEETPAPVKEVEVPVTTEKAVAAPAPEATEEKVVSEVAVPETEVTAVKEEEVATGKEILQSESFKEEGYLASELQEAEKNALAELKELVREALNKREFTAPPPPPAPVKEEKVEEKKTEETEEKKEEVKTEEKSLEAETKEEEKSAAPATVETKKEEILAAPAPIVAETKKEETPVAPAPVETKPAAPVVAETKKEEILPAAPVTTETKVEEKVVPVETTPAAPVTTETKEEEKAAPVTTETKEEEKAAPGETKKEEKATASTQVKRASKFIKDIFVSVTTSEKKKEEEKPAVVTIEKAFAADQEEETKTVEAVEESIVSITLPETAAYVEPEEVSIWGIPLLEDERSDVILLKFLRARDFKVKEAFTMLKNTVQWRKENKIDDLVSEDLEGSEFEKLVFTHGVDKQGHVVIYSSYGEFQNKEIFSDKEKLSKFLKWRIQFQEKCVRSLDFSPEAKSSFVFVSDFRNAPGLGQRALWQFIKRAVKQFEDNYPEFVAKELFINVPWWYIPYYKTFGSIITSPRTRSKMVLSGPSKSAETIFKYVAPEVVPVKYGGLSKDSPFTVEDGVTEAVVKSTSKYTIDLPATEGSTLSWELRVLGADVSYGAQFEPSNEASYTVIVSKNRKVGLTDEPVITDSFKASEAGKVVITIDNQTFKKKKVLYRSKTQA | binds
PMI1 (protein, UniProt Q9C8E6 1-843) MAGEYSGSRSSNTQLLAELEALSENLYQKPQVSVGNRRTNSLALPRSSVPSLVTSADEVSTARAEDLTVSKPRARRLSLSPWRSRPKLEVEEEENVTQSNRIVKKPEESSSGSGVKEEKKGIWNWKPIRGLVRIGMQKLSCLLSVEVVAAQNLPASMNGLRLGVCVRKKETKDGAVQTMPCRVSQGSADFEETLFIKCHVYYSPANGKGSPAKFEARPFLFYLFAVDAKELEFGRHVVDLSELIQESVEKMNYEGARVRQWDMNWGLSGKAKGGELALKLGFQIMEKDGGAGIYSKQGEFGMKPSSKPKNFANSFGRKQSKTSFSVPSPKMTSRSEAWTPASGVESVSDFHGMEHLNLDEPEEKPEEKPVQKNDKPEQRAEDDQEEPDFEVVDKGVEFDDDLETEKSDGTIGERSVEMKEQHVNVDDPRHIMRLTELDSIAKQIKALESMMKDESDGGDGETESQRLDEEEQTVTKEFLQLLEDEETEKLKFYQHKMDISELRSGESVDDESENYLSDLGKGIGCVVQTRDGGYLVSMNPFDTVVMRKDTPKLVMQISKQIVVLPEAGPATGFELFHRMAGSGEELESKISSLMAIDELMGKTGEQVAFEGIASAIIQGRNKERANTSAARTVAAVKTMANAMSSGRRERIMTGIWNVEENPLTSAEEVLAVSLQKLEEMVVEGLKIQADMVDDEAPFEVSAAKGQKNPLESTIPLEEWQKEHRTQQKLTVLATVQLRDPTRRYEAVGGTVVVAVQAEEEEEKGLKVGSLHIGGVKKDAAEKRRLTAAQWLVEHGMGKKGKKKSNIKKKEKEEEEEEMLWSLSSRVMADMWLKSIRNPDVKLH | binds
PATL1 (protein, UniProt Q56WK6 1-573) MAQEEVQKSADVAAAPVVKEKPITDKEVTIPTPVAEKEEVAAPVSDEKAVPEKEVTPEKEAPAAEAEKSVSVKEEETVVVAEKVVVLTAEEVQKKALEEFKELVREALNKREFTAPVTPVKEEKTEEKKTEEETKEEEKTEEKKEETTTEVKVEEEKPAVPAAEEEKSSEAAPVETKSEEKPEEKAEVTTEKASSAEEDGTKTVEAIEESIVSVSPPESAVAPVVVETVAVAEAEPVEPEEVSIWGVPLLQDERSDVILTKFLRARDFKVKEALTMLKNTVQWRKENKIDELVESGEEVSEFEKMVFAHGVDKEGHVVIYSSYGEFQNKELFSDKEKLNKFLSWRIQLQEKCVRAIDFSNPEAKSSFVFVSDFRNAPGLGKRALWQFIRRAVKQFEDNYPEFAAKELFINVPWWYIPYYKTFGSIITSPRTRSKMVLAGPSKSADTIFKYIAPEQVPVKYGGLSKDTPLTEETITEAIVKPAANYTIELPASEACTLSWELRVLGADVSYGAQFEPTTEGSYAVIVSKTRKIGSTDEPVITDSFKVGEPGKIVITIDNQTSKKKKVLYRFKTQ | binds
RPS7A (protein, UniProt Q9C514 1-191) MFSAQHKIHKEKGVELSELDEQVAQAFFDLENTNQELKSELKDLYVNSAVQVDISGGRKAIVVNVPYRLRKAYRKIHVRLVRELEKKFSGKDVILIATRRIVRPPKKGSAAKRPRNRTLTSVHEAILDDVVLPAEIVGKRTRYRLDGTKIMKVFLDPKERNNTEYKVEAFSAVYKKLTGKDVVFEFPITEA | binds
At5g55860 (protein, UniProt Q9LVQ4 1-649) MVAKKGRRDSSDSSPIVEVGEIDTSAPFQSVKDAVNLFGEAAFSAEKPVFRKPNPQSAEKVLVKQTELHLAQKELNKLKEQLKNAETIREQALSELEWSKRTVDELTRKLEAVNESRDSANKATEAAKSLIEEAKPGNVSVASSSDAQTRDMEEYGEVCKELDTAKQELRKIRQVSNEILETKTVALSKVEEAKKVSKVHSEKIELLRKEIAAVNESVEQTKLACSQARKEQSEIFAEKEIQQKSYKAGMEESAKKSLALKNEFDPEFAKKLEVQLTETYNEIDELQKQMETAKASDIDSVNGVSLELNEAKGLFEKLVEEEKSLQELVESLKAELKNVKMEHDEVEAKEAEIESVAGDLHLKLSRSKSELEQCVTEESKAKAALEDMMLTINQISSETEAARREAEGMRNKAKELMKEAESAHLALEDSELHLRVALDEAEEAKAAETKALEQIKSMSEKTNAARNSTSSESGSQSITLSQEEFKSLSKRAEVFDKLAEMKVAAALAQVEAVRASENETLKKLETTQEEIKKLKTATEEALKKAAMADAAKKAVEGELRRWRERDQKKAEEAATRILAEAEMKMASESSPQQHYKAPKQKPVNNKLEKTKTSVVSKKVLMPNLSGIFNRKKNQVEWGSPSYLPGEKPF | binds
PATL4 (protein, UniProt Q94C59 1-540) MTAEVKVEEKQVESEVVIAPAVVPEETTVKAVVEETKVEEDESKPEGVEKSASFKEESDFFADLKESEKKALSDLKSKLEEAIVDNTLLKTKKKESSPMKEKKEEVVKPEAEVEKKKEEAAEEKVEEEKKSEAVVTEEAPKAETVEAVVTEEIIPKEEVTTVVEKVEEETKEEEKKTEDVVTEEVKAETIEVEDEDESVDKDIELWGVPLLPSKGAESTDVILLKFLRARDFKVNEAFEMLKKTLKWRKQNKIDSILGEEFGEDLATAAYMNGVDRESHPVCYNVHSEELYQTIGSEKNREKFLRWRFQLMEKGIQKLNLKPGGVTSLLQIHDLKNAPGVSRTEIWVGIKKVIETLQDNYPEFVSRNIFINVPFWFYAMRAVLSPFLTQRTKSKFVVARPAKVRETLLKYIPADELPVQYGGFKTVDDTEFSNETVSEVVVKPGSSETIEIPAPETEGTLVWDIAVLGWEVNYKEEFVPTEEGAYTVIVQKVKKMGANEGPIRNSFKNSQAGKIVLTVDNVSGKKKKVLYRYRTKTESSS | binds

Results are given in words; binding and its absence hold for the method and conditions named. Binding seen in cells or lysates may run through a third protein. These calls come from enrichment with a bait or labelling near it, and not all partners need be listed.
